Source: PubChem BioAssay AID1259308 (NCATS, 2017)

Screen: 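Knock-downs that increase output of a recombinant reporter protein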 (primary screen)
Cells: human HEK293 embryonic kidney cells stably expressing firefly luciferase (HEK-CMV-Luc2-Hygro)
Knock-down reagent: single siRNA against human genes, 0.8 pmol siRNA per well
Time to read-out: 72 h
Measurement: 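Luciferase light (ONE-Glo) measured on one replicate plate set and viability (CellTiter-Glo) on the other, scaled to a negative control siRNA, with robust z-scores and luciferase per cell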
Direction: total luciferase, z-score: higher = more reporter protein produced
Rule for the call: 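An siRNA counts as active if its total luciferase robust z-score exceeds 3; genes with two or more such siRNAs out of three were retested with fresh siRNAs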
Meaning of the calls: active = raised luciferase; inactive = no rise
The deposit covers about 59,000 reagents; this is a random part of them. Of all reagents, about 1,510 (2.6%) are marked active. 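Calls use total luciferase alone and ignore viability, so some active siRNAs may act by altering cell number.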 The numbers tell different reagents against one gene apart. Further read-outs or replicates are left out here.

total luciferase, z-score, by gene and reagent
NPPB (GeneID 4879): #1 0.551 inactive; #2 -0.287 inactive; #3 0.119 inactive
GTF2H3 (GeneID 2967): #1 -0.0434 inactive; #2 0.173 inactive; #3 0.0849 inactive
FIS1 (GeneID 51024): #1 -0.707 inactive; #2 -0.404 inactive; #3 0.642 inactive
NTSR2 (GeneID 23620): #1 0.874 inactive; #2 0.838 inactive; #3 0.142 inactive

No new results follow: entries from further up.
total luciferase, z-score, by gene and reagent
NTSR2 (GeneID 23620): #2 0.838 inactive; #3 0.142 inactive

Next reagents:
total luciferase, z-score, by gene and reagent
POLD1 (GeneID 5424): #1 -0.479 inactive; #2 0.885 inactive; #3 -0.458 inactive
NOL6 (GeneID 65083): #1 -1.72 inactive; #2 -0.575 inactive; #3 -1.03 inactive
SFMBT1 (GeneID 51460): #1 2.45 inactive; #2 -0.414 inactive; #3 0.746 inactive
ADGRG3 (GeneID 222487): #1 -0.762 inactive; #2 -0.5 inactive; #3 -0.811 inactive
